Laboratory results reported in patent US4209439A, “Stabilization of vinyl resins” (priority 1977, dated 1980).

Columns and labels:
[1] = photostabilising, flexible vinyl chloride-vinyl acetate copolymer (Example 6); conditions: 0.3 part
[2] = static thermostability of polyvinyl chloride, oven at […] C.; design: key: The symbol "B" indicates "burnt"; the index "+" signifies that the colour is disposed half-way between the lower unit and the upper half-unit; the index "-" signifies that the colour is between the lower half-unit and the upper unit; >2 means that it is between 2 and 2^+
[3] = static thermostability of polyvinyl chloride, oven at 210° C.; design: key: The symbol "B" indicates "burnt"; the index "+" signifies that the colour is disposed half-way between the lower unit and the upper half-unit; the index "-" signifies that the colour is between the lower half-unit and the upper unit; >2 means that it is between 2 and 2^+

c1ccc(-c2cc3ccccc3[nH]2)cc1 [2-phenyl indole, reference compound]
Coloration ([1]; Test A, after 24 hours): 6 degrees Gardner | Coloration ([1]; Test A, time 0): 1 degrees Gardner | Coloration ([1]; Test B, after 24 hours): 8 degrees Gardner | Coloration ([1]; Test B, time 0): 1 degrees Gardner | colour ([2]; 0.3 part, 0 min): 1 Gardner | colour ([2]; 0.3 part, 6 min): 1 Gardner | colour ([2]; 0.3 part, 30 min): 14 Gardner | colour ([2]; 0.3 part, 33 min): 14 Gardner | colour ([2]; equimolecular, 1.55×1^-3 mole, 0 min): 1 Gardner | colour ([2]; equimolecular, 1.55×1^-3 mole, 6 min): 2 Gardner | colour ([2]; equimolecular, 1.55×1^-3 mole, 12 min): 3 Gardner | colour ([2]; equimolecular, 1.55×1^-3 mole, 18 min): 10 Gardner | colour ([2]; equimolecular, 1.55×1^-3 mole, 24 min): 13 Gardner | colour ([2]; equimolecular, 1.55×1^-3 mole, 27 min): 13 Gardner | colour ([2]; equimolecular, 1.55×1^-3 mole, 30 min): 13 Gardner | colour ([2]; equimolecular, 1.55×1^-3 mole, 33 min): 14 Gardner | colour ([2]; equimolecular, 1.55×1^-3 mole, 36 min): 16 Gardner | colour ([2]; equimolecular, 1.55×1^-3 mole, 39 min): 16 Gardner | colour ([2]; equimolecular, 1.55×1^-3 mole, 42 min): B | colour ([3]; 0.1 p.c.r., 0 min): 2 Gardner | colour ([3]; 0.1 p.c.r., 2 min): 2 Gardner | colour ([3]; 0.1 p.c.r., 4 min): 2 Gardner | colour ([3]; 0.1 p.c.r., 6 min): 3 Gardner | colour ([3]; 0.1 p.c.r., 8 min): 4 Gardner | colour ([3]; 0.1 p.c.r., 10 min): 11 Gardner | colour ([3]; 0.1 p.c.r., 12 min): 13 Gardner | colour ([3]; 0.2 p.c.r., 0 min): 1 Gardner | colour ([3]; 0.2 p.c.r., 2 min): 1 Gardner | colour ([3]; 0.2 p.c.r., 4 min): 1 Gardner | colour ([3]; 0.2 p.c.r., 6 min): 2 Gardner | colour ([3]; 0.2 p.c.r., 8 min): 3 Gardner and 2 Gardner | colour ([3]; 0.2 p.c.r., 10 min): 4 Gardner and 5 Gardner | colour ([3]; 0.2 p.c.r., 12 min): 12 Gardner and 9 Gardner | colour ([3]; 0.2 p.c.r., 14 min): 15 Gardner | colour ([3]; 0.2 p.c.r., time printed 1 min): 1 Gardner | colour ([3]; Ex. 10, 0.3 part, 0 min): 1 Gardner | colour ([3]; Ex. 10, 0.3 part, 3 min): 2 Gardner and 1 Gardner | colour ([3]; Ex. 10, 0.3 part, 6 min): 2 Gardner | colour ([3]; Ex. 10, 0.3 part, 15 min): 16 Gardner and 17 Gardner and 14 Gardner | colour ([3]; Ex. 10, 0.3 part, 18 min): B | colour ([3]; x = 0.1 to 0.3 p.c.r., 0 min): 1 Gardner | colour ([3]; x = 0.1 to 0.3 p.c.r., 3 min): 1 Gardner | colour ([3]; x = 0.1 to 0.3 p.c.r., 6 min): 2 Gardner | colour ([3]; x = 0.1 to 0.3 p.c.r., 9 min): 4 Gardner | colour ([3]; x = 0.1 to 0.3 p.c.r., 12 min): 11 Gardner and 10 Gardner | colour ([3]; x = 0.1 to 0.3 p.c.r., 15 min): 14 Gardner

CCCCCCCCOC(=O)C1=C(C)NC(C)=C(C(=O)OCCCCCCCC)C1 [L.28502]
Coloration ([1]; Test B, after 24 hours): 1 degrees Gardner | Coloration ([1]; Test B, time 0): 1 degrees Gardner | colour ([2]; 0.3 part, 0 min): 1 Gardner | colour ([2]; 0.3 part, 6 min): 1 Gardner | colour ([2]; 0.3 part, 12 min): 2 Gardner | colour ([2]; 0.3 part, 18 min): 3 Gardner | colour ([2]; 0.3 part, 24 min): 4 Gardner | colour ([2]; 0.3 part, 27 min): 6 Gardner | colour ([2]; 0.3 part, 30 min): 7 Gardner | colour ([2]; 0.3 part, 33 min): 8.5 Gardner | colour ([2]; 0.3 part, 36 min): 9 Gardner | colour ([2]; 0.3 part, 39 min): 11 Gardner | colour ([2]; 0.3 part, 42 min): 15 Gardner | colour ([3]; 0.1 p.c.r., 0 min): 2 Gardner | colour ([3]; 0.1 p.c.r., 2 min): 2 Gardner | colour ([3]; 0.1 p.c.r., 4 min): 2 Gardner | colour ([3]; 0.1 p.c.r., 6 min): 2 Gardner | colour ([3]; 0.1 p.c.r., 8 min): 3 Gardner | colour ([3]; 0.1 p.c.r., 10 min): 6 Gardner | colour ([3]; 0.1 p.c.r., 12 min): 11 Gardner | colour ([3]; 0.2 p.c.r., 0 min): 1 Gardner | colour ([3]; 0.2 p.c.r., 2 min): 1 Gardner | colour ([3]; 0.2 p.c.r., 4 min): 1 Gardner | colour ([3]; 0.2 p.c.r., 6 min): 2 Gardner | colour ([3]; 0.2 p.c.r., 8 min): 2 Gardner | colour ([3]; 0.2 p.c.r., 10 min): 3 Gardner | colour ([3]; 0.2 p.c.r., 12 min): 5 Gardner

CC1=C(C(=O)OC(C)C)CC(C(=O)OC(C)C)=C(C)N1 [L.28506]
Coloration ([1]; Test B, after 24 hours): 2 degrees Gardner | Coloration ([1]; Test B, time 0): 1 degrees Gardner | colour ([2]; 0.3 part, 0 min): 1 Gardner | colour ([2]; 0.3 part, 6 min): 1 Gardner | colour ([2]; 0.3 part, 12 min): 3 Gardner | colour ([2]; 0.3 part, 18 min): 3 Gardner | colour ([2]; 0.3 part, 24 min): 6 Gardner | colour ([2]; 0.3 part, 27 min): 12 Gardner | colour ([2]; 0.3 part, 30 min): 13 Gardner | colour ([2]; 0.3 part, 33 min): 14 Gardner | colour ([2]; 0.3 part, 36 min): 15 Gardner | colour ([2]; 0.3 part, 39 min): 15 Gardner | colour ([2]; 0.3 part, 42 min): 17 Gardner | colour ([3]; Ex. 10, 0.3 part, 0 min): 1 Gardner | colour ([3]; Ex. 10, 0.3 part, 3 min): 1 Gardner | colour ([3]; Ex. 10, 0.3 part, 6 min): 2 Gardner | colour ([3]; Ex. 10, 0.3 part, 9 min): 5 Gardner | colour ([3]; Ex. 10, 0.3 part, 12 min): 11 Gardner | colour ([3]; Ex. 10, 0.3 part, 15 min): 19 Gardner | colour ([3]; Ex. 10, 0.3 part, 18 min): B

CCCCCCCCCCCCOC(=O)C1=C(C)NC(C)=C(C(=O)OCCCCCCCCCCCC)C1 [L.28507, 2,6-Dimethyl-3,5-dicarbododecyloxy-1,4-dihydropyridine]
Coloration ([1]; Test B, after 24 hours): 1 degrees Gardner | Coloration ([1]; Test B, time 0): 1 degrees Gardner | colour ([2]; 0.3 part, 0 min): 1 Gardner | colour ([2]; 0.3 part, 6 min): 2 Gardner | colour ([2]; 0.3 part, 12 min): 2 Gardner | colour ([2]; 0.3 part, 18 min): 7 Gardner | colour ([2]; 0.3 part, 24 min): 11 Gardner | colour ([2]; 0.3 part, 27 min): 13 Gardner | colour ([2]; 0.3 part, 30 min): 14 Gardner | colour ([2]; 0.3 part, 33 min): 15 Gardner | colour ([2]; 0.3 part, 36 min): 15 Gardner | colour ([2]; 0.3 part, 39 min): 18 Gardner | colour ([2]; 0.3 part, 42 min): B | colour ([3]; 0.1 p.c.r., 0 min): 2 Gardner | colour ([3]; 0.1 p.c.r., 2 min): 2 Gardner | colour ([3]; 0.1 p.c.r., 4 min): 2 Gardner | colour ([3]; 0.1 p.c.r., 6 min): 2 Gardner | colour ([3]; 0.1 p.c.r., 8 min): 3 Gardner | colour ([3]; 0.1 p.c.r., 10 min): 4 Gardner | colour ([3]; 0.1 p.c.r., 12 min): 10.5 Gardner | colour ([3]; 0.2 p.c.r., 0 min): 1 Gardner | colour ([3]; 0.2 p.c.r., 2 min): 1 Gardner | colour ([3]; 0.2 p.c.r., 4 min): 1 Gardner | colour ([3]; 0.2 p.c.r., 6 min): 2 Gardner | colour ([3]; 0.2 p.c.r., 8 min): 2 Gardner | colour ([3]; 0.2 p.c.r., 10 min): 3 Gardner | colour ([3]; 0.2 p.c.r., 12 min): 7.5 Gardner | colour ([3]; Ex. 10, 0.3 part, 0 min): 1 Gardner | colour ([3]; Ex. 10, 0.3 part, 3 min): 1 Gardner | colour ([3]; Ex. 10, 0.3 part, 6 min): 2 Gardner | colour ([3]; Ex. 10, 0.3 part, 9 min): 6 Gardner | colour ([3]; Ex. 10, 0.3 part, 12 min): 8 Gardner | colour ([3]; Ex. 10, 0.3 part, 15 min): 19 Gardner | colour ([3]; Ex. 10, 0.3 part, 18 min): B | colour ([3]; x = 0.1 to 0.3 p.c.r., 0 min): 1 Gardner | colour ([3]; x = 0.1 to 0.3 p.c.r., 3 min): 1 Gardner | colour ([3]; x = 0.1 to 0.3 p.c.r., 6 min): 2 Gardner | colour ([3]; x = 0.1 to 0.3 p.c.r., 9 min): 2 Gardner | colour ([3]; x = 0.1 to 0.3 p.c.r., 12 min): 3 Gardner

CC1=C(C(=O)OC2CCCCC2)CC(C(=O)OC2CCCCC2)=C(C)N1 [L.28508]
Coloration ([1]; Test B, after 24 hours): 2 degrees Gardner | Coloration ([1]; Test B, time 0): 1 degrees Gardner | colour ([2]; 0.3 part, 0 min): 1 Gardner | colour ([2]; 0.3 part, 6 min): 1 Gardner | colour ([2]; 0.3 part, 12 min): 3 Gardner | colour ([2]; 0.3 part, 18 min): 5 Gardner | colour ([2]; 0.3 part, 24 min): 8 Gardner | colour ([2]; 0.3 part, 27 min): 13 Gardner | colour ([2]; 0.3 part, 30 min): 16 Gardner | colour ([2]; 0.3 part, 33 min): 18 Gardner | colour ([2]; 0.3 part, 36 min): 18 Gardner | colour ([2]; 0.3 part, 39 min): 18 Gardner | colour ([2]; 0.3 part, 42 min): 18 Gardner | colour ([3]; Ex. 10, 0.3 part, 0 min): 1 Gardner | colour ([3]; Ex. 10, 0.3 part, 3 min): 1 Gardner | colour ([3]; Ex. 10, 0.3 part, 6 min): 3 Gardner | colour ([3]; Ex. 10, 0.3 part, 9 min): 5 Gardner | colour ([3]; Ex. 10, 0.3 part, 12 min): 14 Gardner | colour ([3]; Ex. 10, 0.3 part, 15 min): B

CCCCCCCCCCCCCCCCCCCCCCOC(=O)C1=C(C)NC(C)=C(C(=O)OCCCCCCCCCCCCCCCCCCCCCC)C1 [L.28601]
Coloration ([1]; Test A, after 24 hours): 1 degrees Gardner | Coloration ([1]; Test A, time 0): 1 degrees Gardner | colour ([3]; x = 0.1 to 0.3 p.c.r., 0 min): 1 Gardner | colour ([3]; x = 0.1 to 0.3 p.c.r., 3 min): 1 Gardner | colour ([3]; x = 0.1 to 0.3 p.c.r., 6 min): 2 Gardner | colour ([3]; x = 0.1 to 0.3 p.c.r., 9 min): 2 Gardner | colour ([3]; x = 0.1 to 0.3 p.c.r., 12 min): 4 Gardner

Values joined by “and” are separate entries in the source; they are usually repeats but may differ in a detail not shown here. Identical values can stand only once.
